Laboratory results from PMC7403151.
These are yes or no findings as the source states them, for the method shown. Binding seen in cells or lysates may run through a third protein. Some results given as binding are weak or reduced against the parent protein; the word gives no strength.

Target: T1, CD133 (human (endogenous in A549/A400)) (UniProt O43490)
T1 sequence: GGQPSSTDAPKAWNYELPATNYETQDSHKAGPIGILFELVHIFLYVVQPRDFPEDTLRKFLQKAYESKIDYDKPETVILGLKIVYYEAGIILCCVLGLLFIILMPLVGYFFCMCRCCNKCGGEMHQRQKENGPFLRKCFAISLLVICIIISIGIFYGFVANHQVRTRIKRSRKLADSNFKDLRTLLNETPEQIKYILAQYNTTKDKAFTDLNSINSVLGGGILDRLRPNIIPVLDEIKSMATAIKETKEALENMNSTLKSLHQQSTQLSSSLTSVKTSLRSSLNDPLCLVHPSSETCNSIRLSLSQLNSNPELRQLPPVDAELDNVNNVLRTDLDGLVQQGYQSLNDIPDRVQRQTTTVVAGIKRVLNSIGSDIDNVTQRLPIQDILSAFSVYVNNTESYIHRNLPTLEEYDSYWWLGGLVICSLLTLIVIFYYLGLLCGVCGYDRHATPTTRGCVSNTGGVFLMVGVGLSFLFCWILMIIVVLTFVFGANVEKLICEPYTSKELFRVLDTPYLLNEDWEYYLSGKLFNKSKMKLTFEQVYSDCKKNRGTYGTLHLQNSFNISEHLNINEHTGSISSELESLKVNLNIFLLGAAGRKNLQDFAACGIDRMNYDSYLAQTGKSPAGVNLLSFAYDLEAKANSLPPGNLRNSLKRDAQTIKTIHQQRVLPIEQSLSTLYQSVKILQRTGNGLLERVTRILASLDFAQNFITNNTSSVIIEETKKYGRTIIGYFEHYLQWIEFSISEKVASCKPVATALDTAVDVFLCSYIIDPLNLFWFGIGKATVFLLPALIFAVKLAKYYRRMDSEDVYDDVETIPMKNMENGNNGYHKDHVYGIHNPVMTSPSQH
Experiment: co-IP; 1 mg total protein of A549/A400 cell lysate after treatment with GMI and chloroquine for 24 h; pre-cleared with Protein A/G agarose; 2 ug anti-CD133 or anti-LC3B antibody overnight at 4 C; Protein A/G agarose; Western blot

- binding: binds
Substance: p62 (from UniProt Q13501 1-440)
